Assay results: publication doi:10.1101/2022.01.17.476689
Changes are numbered by the printed parent chain. These are yes or no findings as the source states them, for the method shown. Binding seen in cells or lysates may run through a third protein. Binding can be weak; no strength is given.

Key:
Experiment in all cases: split reporter
[1] = biological target: T1, GALR1 H267A mutant (NanoBiT construct) (human) (UniProt P47211)
T1 sequence: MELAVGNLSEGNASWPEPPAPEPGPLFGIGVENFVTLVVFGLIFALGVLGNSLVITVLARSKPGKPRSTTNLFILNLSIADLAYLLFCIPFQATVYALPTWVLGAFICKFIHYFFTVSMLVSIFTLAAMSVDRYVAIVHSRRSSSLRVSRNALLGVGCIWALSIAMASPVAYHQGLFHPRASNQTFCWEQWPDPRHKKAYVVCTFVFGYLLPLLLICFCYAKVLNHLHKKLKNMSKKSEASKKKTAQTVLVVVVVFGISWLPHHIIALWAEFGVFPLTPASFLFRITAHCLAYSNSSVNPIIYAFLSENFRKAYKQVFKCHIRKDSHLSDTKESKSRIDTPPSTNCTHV

[2] = biological target: T2, GALR1 H263^6.51F mutant (NanoBiT construct) (human) (UniProt P47211)
T2 sequence: T1 sequence with H263F, A267H

[3] = biological target: T3, GALR1 H112^3.29A mutant (NanoBiT construct) (human) (UniProt P47211)
T3 sequence: T1 sequence with H112A, A267H

[4] = biological target: T4, GALR1 H264^6.52F mutant (NanoBiT construct) (human) (UniProt P47211)
T4 sequence: T1 sequence with H264F, A267H

Measured: binding

mini-Gαo fused at its N-terminus to the large NanoBiT fragment (domain or fragment)
binds: [1] | [2] | [3] | [4]
